No constants are given. Whether binding was seen depends on the method and setting. Some binding calls cover weakened binding; strength is not graded here.
Target: INTS6 (human) (UniProt Q9UL03)
Assay: cryo-EM structure; INTAC-PEC assembled from purified human INTAC, NELF, DSIF, S. scrofa Pol II and a DNA-RNA scaffold; gradient fixation (GraFix); map at 4.2 Å, subcomplexes at 3.5-3.8 Å by focused refinement; earlier structures of INTAC and PEC fitted into the maps; both purified

The chains behind the UniProt entries cited, without tags or fusion partners.
UniProt Q9UL03: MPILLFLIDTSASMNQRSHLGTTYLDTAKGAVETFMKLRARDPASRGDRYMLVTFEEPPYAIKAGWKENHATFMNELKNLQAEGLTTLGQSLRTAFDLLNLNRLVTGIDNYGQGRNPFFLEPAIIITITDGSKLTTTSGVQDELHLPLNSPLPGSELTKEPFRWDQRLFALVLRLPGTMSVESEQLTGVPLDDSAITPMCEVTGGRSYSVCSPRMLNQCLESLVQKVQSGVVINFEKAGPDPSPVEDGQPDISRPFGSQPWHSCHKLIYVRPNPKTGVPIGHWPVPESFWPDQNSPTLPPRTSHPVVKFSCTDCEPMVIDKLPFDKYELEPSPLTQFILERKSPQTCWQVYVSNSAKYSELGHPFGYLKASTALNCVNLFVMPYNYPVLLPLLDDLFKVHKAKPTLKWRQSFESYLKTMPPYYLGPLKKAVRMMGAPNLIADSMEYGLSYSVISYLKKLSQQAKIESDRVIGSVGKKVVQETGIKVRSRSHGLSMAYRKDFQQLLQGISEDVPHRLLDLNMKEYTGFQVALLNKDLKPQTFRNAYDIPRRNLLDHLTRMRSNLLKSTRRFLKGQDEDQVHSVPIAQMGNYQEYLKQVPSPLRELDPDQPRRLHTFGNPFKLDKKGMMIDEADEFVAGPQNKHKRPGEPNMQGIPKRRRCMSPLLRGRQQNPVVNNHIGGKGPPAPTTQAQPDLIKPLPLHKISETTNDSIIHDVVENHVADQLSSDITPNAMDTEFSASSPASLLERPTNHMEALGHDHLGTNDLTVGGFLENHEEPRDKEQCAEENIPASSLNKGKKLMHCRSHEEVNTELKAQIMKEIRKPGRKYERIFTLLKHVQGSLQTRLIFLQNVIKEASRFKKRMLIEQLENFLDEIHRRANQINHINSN

binding: binds
Substance: NELF-B (from UniProt Q8WX92 49-628)
